Results deposited as PubChem BioAssay AID1259308 (NCATS, 2017)

Screen: 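Genes whose loss raises luciferase production in HEK293 cells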 (primary screen)
Cell system: human HEK293 embryonic kidney cells stably expressing firefly luciferase (HEK-CMV-Luc2-Hygro)
Reagents: single siRNA against human genes, 0.8 pmol siRNA per well
Duration: 72 h
Read-out: 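Luciferase light (ONE-Glo) measured on one replicate plate set and viability (CellTiter-Glo) on the other, scaled to a negative control siRNA, with robust z-scores and luciferase per cell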
Scale: total luciferase, z-score and total luciferase, % of control: higher = more reporter protein produced
Active means: 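Active when the median/MAD z-score for overall luciferase is greater than 3; a gene was taken forward for validation with new siRNAs if at least two of its three siRNAs passed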
Calls: active = raised luciferase; inactive = no rise
Shown is one part, drawn at random, of about 59,000 deposited reagents. About 1,510 of them (2.6%) count as active. 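Calls use total luciferase alone and ignore viability, so some active siRNAs may act by altering cell number.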 The numbers tell different reagents against one gene apart. Further read-outs or replicates are left out here.

{"gene knocked down":"TADA2A (GeneID 6871)","reagent":1,"total luciferase, z-score":-1.33,"total luciferase, % of control":55.5,"Outcome":"inactive"}
{"gene knocked down":"TADA2A (GeneID 6871)","reagent":2,"total luciferase, z-score":0.641,"total luciferase, % of control":94.6,"Outcome":"inactive"}
{"gene knocked down":"TADA2A (GeneID 6871)","reagent":3,"total luciferase, z-score":-0.74,"total luciferase, % of control":67.2,"Outcome":"inactive"}
{"gene knocked down":"DHH (GeneID 50846)","reagent":1,"total luciferase, z-score":-2.29,"total luciferase, % of control":36.4,"Outcome":"inactive"}
{"gene knocked down":"DHH (GeneID 50846)","reagent":2,"total luciferase, z-score":-0.389,"total luciferase, % of control":74.1,"Outcome":"inactive"}
{"gene knocked down":"DHH (GeneID 50846)","reagent":3,"total luciferase, z-score":-0.139,"total luciferase, % of control":79.1,"Outcome":"inactive"}
{"gene knocked down":"PFKL (GeneID 5211)","reagent":1,"total luciferase, z-score":2.09,"total luciferase, % of control":123,"Outcome":"inactive"}
{"gene knocked down":"PFKL (GeneID 5211)","reagent":2,"total luciferase, z-score":0.618,"total luciferase, % of control":94.2,"Outcome":"inactive"}
{"gene knocked down":"PFKL (GeneID 5211)","reagent":3,"total luciferase, z-score":-0.823,"total luciferase, % of control":65.5,"Outcome":"inactive"}
{"gene knocked down":"FSHR (GeneID 2492)","reagent":1,"total luciferase, z-score":-1.23,"total luciferase, % of control":57.4,"Outcome":"inactive"}
{"gene knocked down":"FSHR (GeneID 2492)","reagent":2,"total luciferase, z-score":-0.771,"total luciferase, % of control":66.5,"Outcome":"inactive"}
{"gene knocked down":"FSHR (GeneID 2492)","reagent":3,"total luciferase, z-score":0.239,"total luciferase, % of control":86.6,"Outcome":"inactive"}
{"gene knocked down":"CYP2E1 (GeneID 1571)","reagent":1,"total luciferase, z-score":-0.312,"total luciferase, % of control":75.7,"Outcome":"inactive"}
{"gene knocked down":"CYP2E1 (GeneID 1571)","reagent":2,"total luciferase, z-score":-0.585,"total luciferase, % of control":70.3,"Outcome":"inactive"}
{"gene knocked down":"CYP2E1 (GeneID 1571)","reagent":3,"total luciferase, z-score":-1.49,"total luciferase, % of control":52.3,"Outcome":"inactive"}
{"gene knocked down":"ZNF267 (GeneID 10308)","reagent":1,"total luciferase, z-score":3.68,"total luciferase, % of control":155,"Outcome":"active"}
{"gene knocked down":"ZNF267 (GeneID 10308)","reagent":2,"total luciferase, z-score":1.4,"total luciferase, % of control":110,"Outcome":"inactive"}
{"gene knocked down":"ZNF267 (GeneID 10308)","reagent":3,"total luciferase, z-score":-1.68,"total luciferase, % of control":48.5,"Outcome":"inactive"}
{"gene knocked down":"ADAMTS2 (GeneID 9509)","reagent":1,"total luciferase, z-score":0.297,"total luciferase, % of control":87.8,"Outcome":"inactive"}
{"gene knocked down":"ADAMTS2 (GeneID 9509)","reagent":2,"total luciferase, z-score":-0.00607,"total luciferase, % of control":81.8,"Outcome":"inactive"}
{"gene knocked down":"ADAMTS2 (GeneID 9509)","reagent":3,"total luciferase, z-score":-1.83,"total luciferase, % of control":45.5,"Outcome":"inactive"}
{"gene knocked down":"ABHD13 (GeneID 84945)","reagent":1,"total luciferase, z-score":-1.62,"total luciferase, % of control":49.7,"Outcome":"inactive"}
{"gene knocked down":"ABHD13 (GeneID 84945)","reagent":2,"total luciferase, z-score":-0.337,"total luciferase, % of control":75.2,"Outcome":"inactive"}
{"gene knocked down":"ABHD13 (GeneID 84945)","reagent":3,"total luciferase, z-score":-1.04,"total luciferase, % of control":61.2,"Outcome":"inactive"}
{"gene knocked down":"MGAT4C (GeneID 25834)","reagent":1,"total luciferase, z-score":-0.117,"total luciferase, % of control":79.6,"Outcome":"inactive"}
{"gene knocked down":"MGAT4C (GeneID 25834)","reagent":2,"total luciferase, z-score":-0.326,"total luciferase, % of control":75.4,"Outcome":"inactive"}
{"gene knocked down":"MGAT4C (GeneID 25834)","reagent":3,"total luciferase, z-score":-0.205,"total luciferase, % of control":77.8,"Outcome":"inactive"}
{"gene knocked down":"KATNA1 (GeneID 11104)","reagent":1,"total luciferase, z-score":0.992,"total luciferase, % of control":102,"Outcome":"inactive"}
{"gene knocked down":"KATNA1 (GeneID 11104)","reagent":2,"total luciferase, z-score":2.45,"total luciferase, % of control":131,"Outcome":"inactive"}
{"gene knocked down":"KATNA1 (GeneID 11104)","reagent":3,"total luciferase, z-score":-0.345,"total luciferase, % of control":75,"Outcome":"inactive"}
{"gene knocked down":"PRPF3 (GeneID 9129)","reagent":1,"total luciferase, z-score":0.536,"total luciferase, % of control":92.5,"Outcome":"inactive"}
{"gene knocked down":"PRPF3 (GeneID 9129)","reagent":2,"total luciferase, z-score":0.847,"total luciferase, % of control":98.7,"Outcome":"inactive"}
{"gene knocked down":"PRPF3 (GeneID 9129)","reagent":3,"total luciferase, z-score":1.01,"total luciferase, % of control":102,"Outcome":"inactive"}
